One assay has as its target VN-HDAC5 (UniProt Q9Z2V6). As to the kind of experiment: split reporter; Venus BiFC in C2C12 myoblasts; 250 ng of each VN and VC plasmid co-transfected with 100 ng mCherry; Leica SP8 confocal microscope 24 hr post transfection.
In the next assay the target is T1, VN-CLOCK (UniProt O08785).
T1 sequence: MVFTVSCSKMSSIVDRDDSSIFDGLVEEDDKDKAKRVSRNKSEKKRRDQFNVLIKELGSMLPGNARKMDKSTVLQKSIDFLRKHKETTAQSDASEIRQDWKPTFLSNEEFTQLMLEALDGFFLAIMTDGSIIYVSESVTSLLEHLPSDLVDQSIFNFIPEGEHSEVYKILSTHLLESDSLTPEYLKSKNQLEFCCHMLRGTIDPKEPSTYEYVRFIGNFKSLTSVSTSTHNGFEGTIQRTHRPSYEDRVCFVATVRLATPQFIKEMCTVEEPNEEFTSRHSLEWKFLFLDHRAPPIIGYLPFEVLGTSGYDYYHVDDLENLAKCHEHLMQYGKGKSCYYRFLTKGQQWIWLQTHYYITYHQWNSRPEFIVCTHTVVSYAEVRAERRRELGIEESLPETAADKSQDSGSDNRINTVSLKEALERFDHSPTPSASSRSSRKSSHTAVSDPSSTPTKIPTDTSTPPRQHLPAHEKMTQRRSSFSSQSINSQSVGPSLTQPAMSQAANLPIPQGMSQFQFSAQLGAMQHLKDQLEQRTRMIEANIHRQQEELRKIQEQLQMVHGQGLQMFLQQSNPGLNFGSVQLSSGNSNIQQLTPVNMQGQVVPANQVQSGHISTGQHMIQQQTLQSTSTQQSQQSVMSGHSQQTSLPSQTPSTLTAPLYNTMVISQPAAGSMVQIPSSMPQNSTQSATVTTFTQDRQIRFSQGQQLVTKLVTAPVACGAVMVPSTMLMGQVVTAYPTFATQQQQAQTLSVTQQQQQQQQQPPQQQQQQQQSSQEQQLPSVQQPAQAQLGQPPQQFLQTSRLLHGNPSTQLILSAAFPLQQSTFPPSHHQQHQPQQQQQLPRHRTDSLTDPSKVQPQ
The assay is described as above.

Sequences of proteins named here, by UniProt entry; tags and fusion partners are left off.
UniProt Q9Z2V6: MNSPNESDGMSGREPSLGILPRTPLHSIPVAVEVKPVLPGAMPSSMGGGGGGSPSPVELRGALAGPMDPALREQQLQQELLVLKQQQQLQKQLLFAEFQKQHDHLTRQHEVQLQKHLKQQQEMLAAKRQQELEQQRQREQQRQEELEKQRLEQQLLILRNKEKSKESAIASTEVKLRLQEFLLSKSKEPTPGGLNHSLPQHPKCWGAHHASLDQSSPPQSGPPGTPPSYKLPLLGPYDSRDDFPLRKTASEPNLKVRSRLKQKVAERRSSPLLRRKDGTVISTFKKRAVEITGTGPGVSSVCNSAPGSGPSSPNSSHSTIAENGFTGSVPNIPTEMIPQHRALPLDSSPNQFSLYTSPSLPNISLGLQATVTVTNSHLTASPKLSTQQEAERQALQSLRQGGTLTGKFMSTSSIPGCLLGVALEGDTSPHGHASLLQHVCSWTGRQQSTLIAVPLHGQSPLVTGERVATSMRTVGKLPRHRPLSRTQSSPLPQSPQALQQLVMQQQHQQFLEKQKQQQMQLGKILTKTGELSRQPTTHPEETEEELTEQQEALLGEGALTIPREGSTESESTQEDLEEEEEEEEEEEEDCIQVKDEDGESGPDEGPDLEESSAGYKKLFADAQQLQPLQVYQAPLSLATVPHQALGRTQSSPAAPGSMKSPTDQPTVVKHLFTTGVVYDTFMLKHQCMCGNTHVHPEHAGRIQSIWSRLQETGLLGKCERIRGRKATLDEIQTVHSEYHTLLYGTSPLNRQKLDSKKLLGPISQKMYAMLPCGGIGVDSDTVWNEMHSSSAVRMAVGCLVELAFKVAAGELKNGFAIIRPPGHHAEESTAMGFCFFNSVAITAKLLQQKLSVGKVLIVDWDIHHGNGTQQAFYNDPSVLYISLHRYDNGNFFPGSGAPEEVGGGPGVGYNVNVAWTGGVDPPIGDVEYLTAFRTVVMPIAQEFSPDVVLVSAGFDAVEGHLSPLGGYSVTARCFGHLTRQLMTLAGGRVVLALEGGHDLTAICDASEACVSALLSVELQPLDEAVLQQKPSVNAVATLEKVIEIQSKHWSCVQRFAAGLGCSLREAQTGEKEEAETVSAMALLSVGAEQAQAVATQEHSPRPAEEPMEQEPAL
UniProt Q9WTL8: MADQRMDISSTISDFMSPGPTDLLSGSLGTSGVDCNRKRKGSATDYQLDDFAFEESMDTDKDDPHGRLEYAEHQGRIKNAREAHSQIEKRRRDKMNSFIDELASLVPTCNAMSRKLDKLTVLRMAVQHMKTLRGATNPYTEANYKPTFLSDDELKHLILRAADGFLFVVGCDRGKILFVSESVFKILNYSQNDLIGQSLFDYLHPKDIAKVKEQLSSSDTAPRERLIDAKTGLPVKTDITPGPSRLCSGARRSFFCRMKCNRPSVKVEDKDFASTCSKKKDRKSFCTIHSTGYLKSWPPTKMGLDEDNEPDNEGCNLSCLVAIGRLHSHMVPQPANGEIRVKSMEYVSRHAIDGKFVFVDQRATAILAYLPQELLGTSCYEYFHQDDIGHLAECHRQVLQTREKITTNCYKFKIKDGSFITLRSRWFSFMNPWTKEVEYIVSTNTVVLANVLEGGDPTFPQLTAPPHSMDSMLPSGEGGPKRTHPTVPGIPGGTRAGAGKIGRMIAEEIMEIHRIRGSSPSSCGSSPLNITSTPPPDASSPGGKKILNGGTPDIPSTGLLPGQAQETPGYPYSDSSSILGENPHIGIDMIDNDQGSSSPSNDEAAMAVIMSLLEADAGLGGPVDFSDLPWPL
UniProt P10085: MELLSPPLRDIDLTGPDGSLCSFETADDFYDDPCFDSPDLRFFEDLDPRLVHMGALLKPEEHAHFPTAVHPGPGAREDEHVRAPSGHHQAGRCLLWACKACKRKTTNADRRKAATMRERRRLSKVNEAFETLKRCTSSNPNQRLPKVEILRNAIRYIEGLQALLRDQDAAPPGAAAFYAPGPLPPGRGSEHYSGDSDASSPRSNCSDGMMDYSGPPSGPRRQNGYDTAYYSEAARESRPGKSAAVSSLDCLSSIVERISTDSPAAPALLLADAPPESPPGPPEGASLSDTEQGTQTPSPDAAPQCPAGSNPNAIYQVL
UniProt Q8CFN5: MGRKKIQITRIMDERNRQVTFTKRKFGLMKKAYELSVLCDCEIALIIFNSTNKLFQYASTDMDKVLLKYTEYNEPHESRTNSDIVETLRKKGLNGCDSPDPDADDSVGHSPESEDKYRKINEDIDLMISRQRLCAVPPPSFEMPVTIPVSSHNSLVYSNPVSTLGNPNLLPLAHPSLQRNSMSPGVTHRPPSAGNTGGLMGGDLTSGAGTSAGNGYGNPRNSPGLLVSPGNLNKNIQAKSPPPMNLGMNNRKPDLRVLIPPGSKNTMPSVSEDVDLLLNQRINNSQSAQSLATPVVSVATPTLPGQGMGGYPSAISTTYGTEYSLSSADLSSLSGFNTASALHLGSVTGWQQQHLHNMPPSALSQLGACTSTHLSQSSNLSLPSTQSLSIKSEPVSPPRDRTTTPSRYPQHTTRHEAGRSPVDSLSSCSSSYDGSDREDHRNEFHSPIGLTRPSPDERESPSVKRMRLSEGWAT

The target of another assay is VN-BMAL1 (UniProt Q9WTL8). The description is as above.
The next assay has as its target VN-MYOD1 (UniProt P10085). As to the kind of experiment: split reporter; Venus BiFC with the fragments swapped (VN-MYOD1 with VC-CLOCK or VC-BMAL1); data not shown.

These are yes or no findings as the source states them, for the method shown. In cells and extracts the contact can be indirect. Some binding calls cover weakened binding; strength is not graded here.

As for VC-MEF2C (from UniProt Q8CFN5 1-474), the binding result with VN-HDAC5 is “binds”. As to VC-MYOD1 (from UniProt P10085 1-318), the binding result with VN-CLOCK and with VN-BMAL1 was “binds” each time.

As to VC-BMAL1 (from UniProt Q9WTL8 1-632), the binding result with VN-MYOD1 and in the assay with VN-CLOCK was “binds” each time.

(Values after PMC6398978.)
